PubChem BioAssay AID652243 – Drosophila RNAi Screening Center | 2013
Purpose: 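Knock-downs that decrease or increase androgen receptor reporter signal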 (primary screen). Cells: Drosophila S2R+ cells. Reagents: long dsRNA against Drosophila genes. Time to read-out: 72 h (48 h, then 24 h hormone). Conditions: synthetic androgen R1881 at 10 nM for 24 h. Measured: 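Per-well raw luminescence of the androgen-driven firefly reporter and of the Renilla control, two replicates each, without normalisation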. Reading the numbers: firefly reporter light: higher = more light from androgen-responsive reporter; Renilla control light: higher = more constitutive control signal (cell number, transfection). Rule for the call: 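Hit when the log firefly-to-Renilla ratio dropped or increased by a fixed fold versus the mean of GFP or LacZ controls across duplicate plates; lowering cut given as 1.5 and as 3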. Calls: active = hit: reporter lowered or raised; inactive = no hit.
In all, the deposit lists about 24,000 reagents; this is a random part of those with a known target gene and a result. Of all reagents, 246 (1%) were called active. 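Plates not normalised; calls are printed but the firefly/Renilla ratio behind them is not deposited; fold cut for lowering reported inconsistently.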 The raw values are shown without normalisation. A number with no mark means an inactive call. Names joined by + are all predicted targets of the reagent. Not given: the amount of reagent.

Rlb1 [DRSC16826]
- firefly reporter light, replicate 1: 1.57e5
- firefly reporter light, replicate 2: 1.46e5
- Renilla control light, replicate 1: 2.76e6
- Renilla control light, replicate 2: 2.46e6

Rlb1 [DRSC27846]
- firefly reporter light, replicate 1: 1.18e6
- firefly reporter light, replicate 2: 6.19e5
- Renilla control light, replicate 1: 3.67e6
- Renilla control light, replicate 2: 1.10e6

CG2493 [DRSC02707]
- firefly reporter light, replicate 1: 3.13e5
- firefly reporter light, replicate 2: 1.44e6
- Renilla control light, replicate 1: 9.70e5
- Renilla control light, replicate 2: 1.68e6

CngA (Cyclic nucleotide-gated ion channel subunit A) [DRSC06580]
- firefly reporter light, replicate 1: 46309
- firefly reporter light, replicate 2: 57217
- Renilla control light, replicate 1: 7.63e5
- Renilla control light, replicate 2: 7.63e5

CngA (Cyclic nucleotide-gated ion channel subunit A) [DRSC07362]
- firefly reporter light, replicate 1: 1.37e5
- firefly reporter light, replicate 2: 1.22e5
- Renilla control light, replicate 1: 1.79e6
- Renilla control light, replicate 2: 1.79e6

CngA (Cyclic nucleotide-gated ion channel subunit A) [DRSC23533]
- firefly reporter light, replicate 1: 9.47e5
- firefly reporter light, replicate 2: 6.04e5
- Renilla control light, replicate 1: 1.07e6
- Renilla control light, replicate 2: 7.31e5

CG4983 [DRSC02799]
- firefly reporter light, replicate 1: 1.00e6
- firefly reporter light, replicate 2: 9.35e5
- Renilla control light, replicate 1: 2.19e6
- Renilla control light, replicate 2: 2.09e6

CG4983 [DRSC26444]
- firefly reporter light, replicate 1: 3.68e5
- firefly reporter light, replicate 2: 2.29e5
- Renilla control light, replicate 1: 7.21e5
- Renilla control light, replicate 2: 6.51e5

cm + Inx7 [DRSC18753]
- firefly reporter light, replicate 1: 1.07e5
- firefly reporter light, replicate 2: 92189
- Renilla control light, replicate 1: 6.83e5
- Renilla control light, replicate 2: 4.85e5

Limited to “Renilla control light, replicate 2”, for 2 of the entries above:
CG4983 [DRSC26444] = 6.51e5
cm + Inx7 [DRSC18753] = 4.85e5

The list goes on.
CG12078 [DRSC08242]
- firefly reporter light, replicate 1: 91850
- firefly reporter light, replicate 2: 1.03e5
- Renilla control light, replicate 1: 1.04e6
- Renilla control light, replicate 2: 1.36e6

Mal-A6 (Maltase A6) [DRSC07233]
- firefly reporter light, replicate 1: 3.51e5
- firefly reporter light, replicate 2: 3.54e5
- Renilla control light, replicate 1: 2.11e6
- Renilla control light, replicate 2: 2.11e6

Mal-A6 (Maltase A6) [DRSC27167]
- firefly reporter light, replicate 1: 3.35e5
- firefly reporter light, replicate 2: 2.47e5
- Renilla control light, replicate 1: 4.54e5
- Renilla control light, replicate 2: 3.33e5

CG14330 [DRSC14809]
- firefly reporter light, replicate 1: 2.17e5
- firefly reporter light, replicate 2: 1.60e5
- Renilla control light, replicate 1: 2.32e6
- Renilla control light, replicate 2: 2.42e6

PHDP (Putative homeodomain protein) [DRSC04635]
- firefly reporter light, replicate 1: 2.75e5
- firefly reporter light, replicate 2: 3.43e5
- Renilla control light, replicate 1: 2.12e6
- Renilla control light, replicate 2: 2.12e6

mRpL36 (mitochondrial ribosomal protein L36) [DRSC10337]
- firefly reporter light, replicate 1: 2.26e5
- firefly reporter light, replicate 2: 1.31e5
- Renilla control light, replicate 1: 2.80e6
- Renilla control light, replicate 2: 1.45e6

CG3603 [DRSC18317]
- firefly reporter light, replicate 1: 2.32e5
- firefly reporter light, replicate 2: 2.79e5
- Renilla control light, replicate 1: 2.75e6
- Renilla control light, replicate 2: 3.62e6

SIFaR (SIFamide receptor) [DRSC13467]
- firefly reporter light, replicate 1: 1.46e5
- firefly reporter light, replicate 2: 50843
- Renilla control light, replicate 1: 2.18e5
- Renilla control light, replicate 2: 1.82e5

SIFaR (SIFamide receptor) [DRSC14266]
- firefly reporter light, replicate 1: 2.97e5
- firefly reporter light, replicate 2: 2.97e5
- Renilla control light, replicate 1: 2.98e6
- Renilla control light, replicate 2: 3.42e6

Or33b (Odorant receptor 33b) [DRSC03387]
- firefly reporter light, replicate 1: 2.57e5
- firefly reporter light, replicate 2: 3.29e5
- Renilla control light, replicate 1: 1.24e6
- Renilla control light, replicate 2: 1.41e6

Obp8a (Odorant-binding protein 8a) [DRSC17868]
- firefly reporter light, replicate 1: 2.82e5
- firefly reporter light, replicate 2: 2.83e5
- Renilla control light, replicate 1: 2.08e6
- Renilla control light, replicate 2: 2.05e6

Obp8a (Odorant-binding protein 8a) [DRSC29698]
- firefly reporter light, replicate 1: 5.25e5
- firefly reporter light, replicate 2: 3.86e5
- Renilla control light, replicate 1: 1.26e6
- Renilla control light, replicate 2: 1.03e6
